# Over roughly 33,000 sequences, “E-score (-0.5 to 0.5)” has its median near -0.015; the highest 2% begin near 0.3. The list shows a part of the results.
# Molecular target: T1, Abf1 (UniProt P14164)
# T1 sequence: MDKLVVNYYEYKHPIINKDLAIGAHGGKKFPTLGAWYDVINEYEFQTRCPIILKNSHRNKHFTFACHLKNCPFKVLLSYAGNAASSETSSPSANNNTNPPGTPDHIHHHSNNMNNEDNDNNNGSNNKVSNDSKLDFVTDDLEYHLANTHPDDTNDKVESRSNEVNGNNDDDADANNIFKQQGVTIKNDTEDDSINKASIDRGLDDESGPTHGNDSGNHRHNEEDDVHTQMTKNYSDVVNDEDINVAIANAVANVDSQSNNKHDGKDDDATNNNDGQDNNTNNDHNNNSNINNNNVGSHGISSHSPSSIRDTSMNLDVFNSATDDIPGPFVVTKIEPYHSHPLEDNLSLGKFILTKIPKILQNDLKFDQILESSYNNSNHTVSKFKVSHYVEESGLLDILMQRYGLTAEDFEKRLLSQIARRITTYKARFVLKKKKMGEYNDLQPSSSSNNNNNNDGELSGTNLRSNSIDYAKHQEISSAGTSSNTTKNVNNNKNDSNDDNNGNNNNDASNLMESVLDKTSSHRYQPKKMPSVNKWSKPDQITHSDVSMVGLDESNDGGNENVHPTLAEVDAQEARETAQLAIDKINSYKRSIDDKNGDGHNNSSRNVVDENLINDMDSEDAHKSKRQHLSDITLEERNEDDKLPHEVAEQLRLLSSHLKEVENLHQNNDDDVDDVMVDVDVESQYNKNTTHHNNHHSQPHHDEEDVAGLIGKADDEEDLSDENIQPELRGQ
# Experiment: PBM E-score (8-mer binding enrichment) (E-score (-0.5 to 0.5)); higher = stronger / more preferred TF binding
# Details: protein concentration: 200 nM; construct: GST-full length
# Procedure, shortened: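 GST-tagged yeast TFs (full-length or DNA-binding domain) were made by PURExpress in vitro transcription/translation and applied at about 100-200 nM to universal all-10-mer Agilent arrays. The arrays were made double-stranded by primer extension, on fresh or once-stripped slides. Bound protein was detected with fluorescent anti-GST, and scans were normalised with masliner. Each ungapped eight-base word, pooled with its reverse complement, received an E-score (modified Wilcoxon-Mann-Whitney statistic) from the Universal PBM Analysis Suite.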
row,Sequence,PBM E-score
1,AGCTACGA,0.029
2,TCCATCCA,-0.0497
3,TCCTTCAA,-0.0723
4,ACGATGTG,0.196
5,AGAGCTAA,-0.156
6,ACGAAGAG,0.214
7,ACCCAACA,-0.101
8,CTTGATTC,-0.121
9,CCGGATGC,-0.165
10,AAGGAGAA,-0.198
11,ATAGTTGA,0.0299
12,ATACTCTG,0.0248
13,CTAGTAAG,-0.0501
14,CTTGAGTA,-0.00562
15,ACAGAAGG,-0.131
16,ATCTAATC,0.163
17,AGATCATC,0.273
18,CAGGCAGC,-0.177
19,ACGCTACT,-0.0355
20,ATTTATAA,0.176
21,CGGCACAC,0.173
22,ACAGCCTG,0.0129

row,Sequence,PBM E-score
1,CATGATGG,-0.191
2,CATATTGC,-0.108
3,CATCGGCC,-0.154
4,AGGTAGCC,-0.097
5,GAAGCAGC,-0.147
6,ATGCAAGC,-0.0371
7,AAGTAGTG,0.132
8,ATTGTTGA,0.14
9,ATAACACA,0.0628
10,TATCTAGA,0.0211
11,CTGGCAAC,-0.238
12,AGTCAGAA,0.0706
13,AGTTAGAC,0.079
14,ATAGATCA,0.267
15,GGTAGCAA,-0.111
16,GTTTATTA,0.0803
17,ACATCCAA,-0.0391
18,GTCCTCCA,0.0381
19,ACGGCACA,0.143
20,AACGGACT,-0.0919
21,CCTAGGAG,-0.121
22,TAATAGTA,0.187

row,Sequence,PBM E-score
1,ATCGGAAG,-0.112
2,GGGCGGAA,-0.21
3,GGATGAAC,0.122
4,CCGATCAA,-0.129
5,ACCAAGCG,-0.25
6,GTCGGCCA,-0.147
7,CCCTAAAA,-0.176
8,CCAATTAG,-0.018
9,ATGGGACC,-0.0822
10,CCCCCCAC,-0.361
11,TACATGTA,0.0309
12,CCAGACTA,-0.0283
13,CTCGGGAA,0.0853
14,CTAGCGCA,-0.317
15,AGTAACAC,0.013
16,CACATTTC,0.0894
17,GGTGCCTA,-0.164
18,CAATACAA,-0.162
19,CAGAGCTA,-0.25
20,AAAAGATT,0.0144
21,CGCACAAG,-0.154
22,CTCAGTGC,-0.256

row,Sequence,PBM E-score
1,CGGGTACG,-0.0332
2,CTTAGCCA,0.0975
3,CATAACTA,0.0945
4,GAGGAGAA,-0.108
5,CAGGGAGC,-0.191
6,AACAAACC,0.0194
7,AACCGACT,-0.117
8,CGACTGCA,0.0303
9,ACAGATGC,-0.0305
10,AGTGACTA,0.324
11,CCTCATAC,-0.00761
12,TCAGTAAA,0.0086
13,CTCAAGAC,-0.0817
14,ACCTATAG,-0.176
15,AGGCCATG,-0.191
16,GCAAAAAC,0.0419
17,CATCTCCC,-0.0258
18,CTCACCCC,-0.0665
19,GTTAACTA,0.122
20,CGCCGCGA,0.0127

# 5 entries from above, tab-delimited:
row	Sequence	PBM E-score
4	ACGATGTG	0.196
3	CATCGGCC	-0.154
22	TAATAGTA	0.187
6	GTCGGCCA	-0.147
8	CGACTGCA	0.0303

# Source: the supplement of paper PMC3334620
